PubChem BioAssay AID1508597 | Cure First, 2020
Purpose: 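Genes whose silencing sensitises or protects ovarian cancer cells against rucaparib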 (primary screen). Cell system: human ovarian carcinoma lines grown from tumours: OCI-P5x (papillary serous) and OCI-C5x (clear cell). Knock-down reagent: siRNA pool against human genes, 1.25 pmol siRNA per well. Timing: 72 h or 96 h, depending on the cell culture. Conditions: rucaparib 20 µM (about IC30) or vehicle, present until read-out. Read-out: 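Luminescent ATP-based viability assay read 72 or 96 h after transfection, depending on culture, given as normalised percent viability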. Reading the numbers: viability, normalised: higher = more viable cells remaining. Call rule: 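a well counts as a hit if its normalised viability is under 80 percent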. Meaning of the calls: active = viability under 80%; inactive = viability 80% or more.
In all, the deposit lists about 2,100 reagents; below is a random part of them. 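Calls flag viability under 80% in either arm, not effects specific to rucaparib; the reference for percent is not stated.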 Not stated in the record: the 100% reference.

JMJD4 (GeneID 65094), rucaparib or vehicle Rucaparib, cell line OCI-C5x (clear cell), technical replicate 1 → viability, normalised (%): 53.3; activity call: active
JMJD4 (GeneID 65094), rucaparib or vehicle Rucaparib, cell line OCI-C5x (clear cell), technical replicate 2 → viability, normalised (%): 63.2; activity call: active
JMJD4 (GeneID 65094), rucaparib or vehicle Rucaparib, cell line OCI-C5x (clear cell), technical replicate 3 → viability, normalised (%): 46.5; activity call: active
JMJD4 (GeneID 65094), rucaparib or vehicle Rucaparib, cell line OCI-P5x (serous), technical replicate 1 → viability, normalised (%): 65.6; activity call: active
JMJD4 (GeneID 65094), rucaparib or vehicle Rucaparib, cell line OCI-P5x (serous), technical replicate 2 → viability, normalised (%): 51; activity call: active
JMJD4 (GeneID 65094), rucaparib or vehicle Rucaparib, cell line OCI-P5x (serous), technical replicate 3 → viability, normalised (%): 59.4; activity call: active
JMJD4 (GeneID 65094), rucaparib or vehicle Vehicle, cell line OCI-C5x (clear cell), technical replicate 1 → viability, normalised (%): 65.4; activity call: active
JMJD4 (GeneID 65094), rucaparib or vehicle Vehicle, cell line OCI-C5x (clear cell), technical replicate 2 → viability, normalised (%): 65.1; activity call: active
JMJD4 (GeneID 65094), rucaparib or vehicle Vehicle, cell line OCI-C5x (clear cell), technical replicate 3 → viability, normalised (%): 71.1; activity call: active
JMJD4 (GeneID 65094), rucaparib or vehicle Vehicle, cell line OCI-P5x (serous), technical replicate 1 → viability, normalised (%): 59.9; activity call: active
JMJD4 (GeneID 65094), rucaparib or vehicle Vehicle, cell line OCI-P5x (serous), technical replicate 2 → viability, normalised (%): 80; activity call: active
JMJD4 (GeneID 65094), rucaparib or vehicle Vehicle, cell line OCI-P5x (serous), technical replicate 3 → viability, normalised (%): 131; activity call: inactive
RIC8A (GeneID 60626), rucaparib or vehicle Rucaparib, cell line OCI-C5x (clear cell), technical replicate 1 → viability, normalised (%): 31.9; activity call: active
RIC8A (GeneID 60626), rucaparib or vehicle Rucaparib, cell line OCI-C5x (clear cell), technical replicate 2 → viability, normalised (%): 33.7; activity call: active
RIC8A (GeneID 60626), rucaparib or vehicle Rucaparib, cell line OCI-C5x (clear cell), technical replicate 3 → viability, normalised (%): 27.7; activity call: active
RIC8A (GeneID 60626), rucaparib or vehicle Rucaparib, cell line OCI-P5x (serous), technical replicate 1 → viability, normalised (%): 19.4; activity call: active
RIC8A (GeneID 60626), rucaparib or vehicle Rucaparib, cell line OCI-P5x (serous), technical replicate 2 → viability, normalised (%): 37.5; activity call: active
RIC8A (GeneID 60626), rucaparib or vehicle Rucaparib, cell line OCI-P5x (serous), technical replicate 3 → viability, normalised (%): 33.3; activity call: active
RIC8A (GeneID 60626), rucaparib or vehicle Vehicle, cell line OCI-C5x (clear cell), technical replicate 1 → viability, normalised (%): 40.5; activity call: active
RIC8A (GeneID 60626), rucaparib or vehicle Vehicle, cell line OCI-C5x (clear cell), technical replicate 2 → viability, normalised (%): 37.7; activity call: active
RIC8A (GeneID 60626), rucaparib or vehicle Vehicle, cell line OCI-C5x (clear cell), technical replicate 3 → viability, normalised (%): 50.2; activity call: active
RIC8A (GeneID 60626), rucaparib or vehicle Vehicle, cell line OCI-P5x (serous), technical replicate 1 → viability, normalised (%): 55.2; activity call: active
RIC8A (GeneID 60626), rucaparib or vehicle Vehicle, cell line OCI-P5x (serous), technical replicate 2 → viability, normalised (%): 53.7; activity call: active
RIC8A (GeneID 60626), rucaparib or vehicle Vehicle, cell line OCI-P5x (serous), technical replicate 3 → viability, normalised (%): 72.6; activity call: active

Next part; the last 3 above are carried over.
RIC8A (GeneID 60626), rucaparib or vehicle Vehicle, cell line OCI-P5x (serous), technical replicate 1 → viability, normalised (%): 55.2; activity call: active
RIC8A (GeneID 60626), rucaparib or vehicle Vehicle, cell line OCI-P5x (serous), technical replicate 2 → viability, normalised (%): 53.7; activity call: active
RIC8A (GeneID 60626), rucaparib or vehicle Vehicle, cell line OCI-P5x (serous), technical replicate 3 → viability, normalised (%): 72.6; activity call: active
DDX24 (GeneID 57062), rucaparib or vehicle Rucaparib, cell line OCI-C5x (clear cell), technical replicate 1 → viability, normalised (%): 52; activity call: active
DDX24 (GeneID 57062), rucaparib or vehicle Rucaparib, cell line OCI-C5x (clear cell), technical replicate 2 → viability, normalised (%): 39.1; activity call: active
DDX24 (GeneID 57062), rucaparib or vehicle Rucaparib, cell line OCI-C5x (clear cell), technical replicate 3 → viability, normalised (%): 44.6; activity call: active
DDX24 (GeneID 57062), rucaparib or vehicle Rucaparib, cell line OCI-P5x (serous), technical replicate 1 → viability, normalised (%): 67.2; activity call: active
DDX24 (GeneID 57062), rucaparib or vehicle Rucaparib, cell line OCI-P5x (serous), technical replicate 2 → viability, normalised (%): 85.2; activity call: inactive
DDX24 (GeneID 57062), rucaparib or vehicle Rucaparib, cell line OCI-P5x (serous), technical replicate 3 → viability, normalised (%): 88.5; activity call: inactive
DDX24 (GeneID 57062), rucaparib or vehicle Vehicle, cell line OCI-C5x (clear cell), technical replicate 1 → viability, normalised (%): 39.8; activity call: active
DDX24 (GeneID 57062), rucaparib or vehicle Vehicle, cell line OCI-C5x (clear cell), technical replicate 2 → viability, normalised (%): 32.2; activity call: active
DDX24 (GeneID 57062), rucaparib or vehicle Vehicle, cell line OCI-C5x (clear cell), technical replicate 3 → viability, normalised (%): 42.5; activity call: active
DDX24 (GeneID 57062), rucaparib or vehicle Vehicle, cell line OCI-P5x (serous), technical replicate 1 → viability, normalised (%): 64.9; activity call: active
DDX24 (GeneID 57062), rucaparib or vehicle Vehicle, cell line OCI-P5x (serous), technical replicate 2 → viability, normalised (%): 82.3; activity call: inactive
DDX24 (GeneID 57062), rucaparib or vehicle Vehicle, cell line OCI-P5x (serous), technical replicate 3 → viability, normalised (%): 76.7; activity call: active
PIK3R1 (GeneID 5295), rucaparib or vehicle Rucaparib, cell line OCI-C5x (clear cell), technical replicate 1 → viability, normalised (%): 54.1; activity call: active
PIK3R1 (GeneID 5295), rucaparib or vehicle Rucaparib, cell line OCI-C5x (clear cell), technical replicate 2 → viability, normalised (%): 45.2; activity call: active
PIK3R1 (GeneID 5295), rucaparib or vehicle Rucaparib, cell line OCI-C5x (clear cell), technical replicate 3 → viability, normalised (%): 34.4; activity call: active
PIK3R1 (GeneID 5295), rucaparib or vehicle Rucaparib, cell line OCI-P5x (serous), technical replicate 1 → viability, normalised (%): 56.5; activity call: active
PIK3R1 (GeneID 5295), rucaparib or vehicle Rucaparib, cell line OCI-P5x (serous), technical replicate 2 → viability, normalised (%): 62.6; activity call: active
PIK3R1 (GeneID 5295), rucaparib or vehicle Rucaparib, cell line OCI-P5x (serous), technical replicate 3 → viability, normalised (%): 54.2; activity call: active
PIK3R1 (GeneID 5295), rucaparib or vehicle Vehicle, cell line OCI-C5x (clear cell), technical replicate 1 → viability, normalised (%): 39.4; activity call: active
PIK3R1 (GeneID 5295), rucaparib or vehicle Vehicle, cell line OCI-C5x (clear cell), technical replicate 2 → viability, normalised (%): 44.5; activity call: active
PIK3R1 (GeneID 5295), rucaparib or vehicle Vehicle, cell line OCI-C5x (clear cell), technical replicate 3 → viability, normalised (%): 51.7; activity call: active
PIK3R1 (GeneID 5295), rucaparib or vehicle Vehicle, cell line OCI-P5x (serous), technical replicate 1 → viability, normalised (%): 47.9; activity call: active
PIK3R1 (GeneID 5295), rucaparib or vehicle Vehicle, cell line OCI-P5x (serous), technical replicate 2 → viability, normalised (%): 52.1; activity call: active
PIK3R1 (GeneID 5295), rucaparib or vehicle Vehicle, cell line OCI-P5x (serous), technical replicate 3 → viability, normalised (%): 81.1; activity call: inactive
